Measurements as given in PMC8018780, “Two peptides targeting endothelial receptors are internalized into murine brain endothelial cells” (PLoS ONE, 2021).

Legend:
[1] = biological target: low-density lipoprotein receptor-related protein 1 (LRP-1), human (human); assay: SPR; Biacore 3000, CM5 chip, receptors immobilised by EDC/NHS coupling (TfR 58 fmol/mm^2, LRP-1 0.025 fmol/mm^2); peptides injected at 0.25-4 uM, 5 uL/min, 25°C, 10 mM HEPES, 150 mM NaCl, 1.5 mM CaCl2, 1 mM EGTA, 0.005% Tween 20, pH 7.4; Langmuir 1:1 model, global fit; both purified
[2] = biological target: recombinant mouse transferrin receptor (TfR) protein (mouse) (UniProt Q62351); assay: as above

| binding [1] | binding [2] | Binder |
| --- | --- | --- |
| binds |  | GYRPVHNIRGHWAPGK (C-terminal amide) [GYR (peptide 2)] |
| binds | binds | FRCLVENRGDVPFVTRIR (C-terminal amide) [MTfp (peptide 1), peptide derived from melanotransferrin] |

No constants are given. Whether binding was seen depends on the method and setting. A result given as binding can be weak or reduced; the word gives no strength.
